Reference: article PMC11633487
Results are given in words; binding and its absence hold for the method and conditions named. In cells and extracts the contact can be indirect. These calls come from enrichment with a bait or labelling near it, and not all partners need be listed.

By UniProt entry, the sequences of proteins in these tests, tags left out.
UniProt Q9UMS4: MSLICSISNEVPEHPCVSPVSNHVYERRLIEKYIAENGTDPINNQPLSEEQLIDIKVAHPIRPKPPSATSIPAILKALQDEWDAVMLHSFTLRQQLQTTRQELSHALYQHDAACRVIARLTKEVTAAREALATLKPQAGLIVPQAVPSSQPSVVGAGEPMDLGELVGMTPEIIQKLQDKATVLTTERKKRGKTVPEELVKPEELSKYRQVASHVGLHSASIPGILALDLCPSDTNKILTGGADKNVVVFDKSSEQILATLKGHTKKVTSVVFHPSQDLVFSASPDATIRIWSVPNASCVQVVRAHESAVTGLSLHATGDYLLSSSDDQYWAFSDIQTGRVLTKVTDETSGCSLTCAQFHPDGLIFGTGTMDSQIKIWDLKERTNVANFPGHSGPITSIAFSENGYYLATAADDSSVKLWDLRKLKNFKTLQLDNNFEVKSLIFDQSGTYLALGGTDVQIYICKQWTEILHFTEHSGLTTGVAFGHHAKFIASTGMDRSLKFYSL
UniProt P17844: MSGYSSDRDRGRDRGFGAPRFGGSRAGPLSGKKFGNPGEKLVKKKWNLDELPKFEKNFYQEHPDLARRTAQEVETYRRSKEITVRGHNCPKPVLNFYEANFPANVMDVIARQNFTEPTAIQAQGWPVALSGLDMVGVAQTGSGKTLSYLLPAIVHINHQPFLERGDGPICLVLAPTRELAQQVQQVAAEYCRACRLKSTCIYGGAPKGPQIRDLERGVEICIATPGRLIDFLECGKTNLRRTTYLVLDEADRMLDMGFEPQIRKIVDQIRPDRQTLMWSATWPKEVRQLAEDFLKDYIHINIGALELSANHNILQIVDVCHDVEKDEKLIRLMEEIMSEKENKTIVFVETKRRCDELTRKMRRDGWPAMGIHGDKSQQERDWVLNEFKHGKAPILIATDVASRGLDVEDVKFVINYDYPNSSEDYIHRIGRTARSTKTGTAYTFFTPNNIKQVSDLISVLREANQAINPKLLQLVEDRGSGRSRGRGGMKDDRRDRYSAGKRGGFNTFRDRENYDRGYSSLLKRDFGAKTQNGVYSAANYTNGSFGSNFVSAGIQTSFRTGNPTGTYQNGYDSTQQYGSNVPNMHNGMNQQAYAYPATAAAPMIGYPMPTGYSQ

Molecular target: Pre-mRNA processing factor 19 (PRP19), endogenous in HCC cells (not stated (endogenous in HCC cells; human Huh7, PLC/PRF/5 or mouse Hepa1-6)) (UniProt Q9UMS4)
Assay: affinity purification with mass spectrometry; HCC cell lysates immunoprecipitated with anti-PRP19 (Santa Cruz, 1:100) or control IgG overnight at 4 °C, Protein A magnetic beads 2 h at room temperature; silver-stained gel bands analysed by LC-MS/MS

- binding: binds
Substance: DEAD-box helicase 5 (DDX5), endogenous in HCC cells (from UniProt P17844 1-614)
